Data: publication PMC8986756
These are yes or no findings as the source states them, for the method shown. Binding seen in cells or lysates may run through a third protein. Some results given as binding are weak or reduced against the parent protein; the word gives no strength.

The chains behind the UniProt entries cited, without tags or fusion partners.
UniProt Q14184: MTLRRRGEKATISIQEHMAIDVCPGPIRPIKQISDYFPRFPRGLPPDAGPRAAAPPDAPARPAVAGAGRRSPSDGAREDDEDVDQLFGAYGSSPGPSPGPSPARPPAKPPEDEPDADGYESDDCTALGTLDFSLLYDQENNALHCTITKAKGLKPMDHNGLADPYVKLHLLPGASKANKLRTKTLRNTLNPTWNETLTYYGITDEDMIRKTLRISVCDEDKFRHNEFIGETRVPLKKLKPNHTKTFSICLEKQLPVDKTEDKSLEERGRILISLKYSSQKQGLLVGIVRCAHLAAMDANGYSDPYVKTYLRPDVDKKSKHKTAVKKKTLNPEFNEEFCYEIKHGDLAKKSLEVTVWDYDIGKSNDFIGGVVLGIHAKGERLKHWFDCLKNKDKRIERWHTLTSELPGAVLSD
UniProt O95863: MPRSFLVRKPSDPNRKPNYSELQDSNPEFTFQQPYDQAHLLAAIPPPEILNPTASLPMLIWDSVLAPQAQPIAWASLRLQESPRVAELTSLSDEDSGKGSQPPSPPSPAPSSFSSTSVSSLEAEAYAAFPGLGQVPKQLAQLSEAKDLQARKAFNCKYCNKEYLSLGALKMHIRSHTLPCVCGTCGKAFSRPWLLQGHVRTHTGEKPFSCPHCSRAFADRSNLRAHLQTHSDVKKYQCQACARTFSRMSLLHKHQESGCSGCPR

Biological target: Double C2-like domain beta (DOC2B) (human) (UniProt Q14184)
Assay: co-IP; NP40 lysate (250 μg) of DOC2B-expressing SiHa cells incubated with 1 μg anti-DOC2B antibody (rabbit IgG as control) overnight at 4 °C, protein A/G immuno-magnetic beads 6 h at 4 °C, washed with 0.01% PBST; immunoblot with anti-CDH1 and anti-SNAI1

For “Snail family transcriptional repressor 1 (SNAI1) (from UniProt O95863 1-264)”, the binding was “binds”.
